Laboratory results taken from PubChem BioAssay AID540276 (National Center for Advancing Translational Sciences (NCATS), 2011).
In all, about 300,000 compounds went through this assay and about 5,400 (1.8%) were called active. The shares of active, inactive and inconclusive entries below differ from those in the screen. Calls follow the shape of the full dose curve; tested in HEK293 cells. Potencies beside an inconclusive call are fits to weak or partial responses and may not hold up.

test: qHTS for inhibitors of binding or entry into cells for Marburg Virus; settings: Marburg virus pseudotyped entry inhibition, cell reporter; series mostly up to 37.8 µM
Potency is read from the fitted curve at half-maximal effect.

Q: With `CO/N=C1\CCCc2c(C(=O)NN)sc(SC)c21` as the compound, how does the Potency read?
A: The Potency was inconclusive: 20 µM [inhibitor, single point].

Q: With `CCc1cccc(OCCCCNCCCOC)c1` as the compound, how does the Potency read?
A: Its Potency is inconclusive: 13 µM [inhibitor, partial curve, poor fit].

Q: For `Cc1cc(C(=O)COc2ccccc2C(N)=O)c(C)n1CC1CCCO1` (stereo not given), which Potency is on record?
A: Its Potency is inconclusive: 5.01 µM [inhibitor, partial curve, poor fit].

Q: For `CC(C(=O)Nc1cccnc1)N1C(=O)c2ccccc2C1=O` (stereo not given), which Potency is on record?
A: The Potency was “inactive”.

Q: For `CCOC(=O)c1ccc(Oc2c(C)oc3cc(OS(C)(=O)=O)ccc3c2=O)cc1`, which Potency is on record?
A: The Potency was inconclusive: 35.5 µM [inhibitor, single point].

Q: For `Cc1occc1C(=O)NC1CCCc2ccccc21` (stereo not given), which Potency is on record?
A: The Potency was “inactive”.

Q: With `CCOc1cccc(-c2nn3c(-c4ccco4)nnc3s2)c1` as the compound, how does the Potency read?
A: The Potency was “inactive”.

Q: With `Cc1ccc(-c2c(C(=O)NC(C)C)oc(=O)c3ccccc23)cc1` as the compound, how does the Potency read?
A: Its Potency is “inactive”.

Q: With `Cc1sc(NC(=O)c2ccccc2)c(C#N)c1-c1ccccc1` as the compound, how does the Potency read?
A: Its Potency is “inactive”.

Q: For `COc1cc(NC(=S)Nc2ccc(Br)cc2Cl)c(OC)cc1Cl`, which Potency is on record?
A: Its Potency is inconclusive: 5.62 µM [activator, single point].

Q: For `CC(C)(C)c1ccc(OCCC(=O)Nc2cccc(S(=O)(=O)N3CCOCC3)c2)cc1`, which Potency is on record?
A: Its Potency is inconclusive: 12.6 µM [inhibitor, single point].

Q: With `CC(=O)c1c(C)n(-c2ccccc2)c2ccc(OCC(N)=O)cc12` as the compound, how does the Potency read?
A: Its Potency is “inactive”.

Q: For `Clc1ccc(C2=NNC(=NCc3ccccc3)SC2)cc1`, which Potency is on record?
A: The Potency was inconclusive: 1.26 µM [inhibitor, full curve].

Q: With `CCOC(=O)c1ccc(NC(=O)Nc2cc(C)on2)cc1` as the compound, how does the Potency read?
A: The Potency was “inactive”.

Q: Which Potency does the source give for `CC1(C)CC(N2CCOCC2)=CC(=[N+]2CCOCC2)C1` here?
A: Its Potency is inconclusive: 5.62 µM [inhibitor, single point].

Q: With `O=C(Nc1ccc2c(c1)C(=O)OC2)c1ccccc1Cl` as the compound, how does the Potency read?
A: Its Potency is inconclusive: 31.6 µM [activator, single point].

Q: With `CCOC(=O)c1cccc(-n2c(C)cc(C=O)c2C)c1` as the compound, how does the Potency read?
A: Its Potency is inconclusive: 0.355 µM [inhibitor, full curve, poor fit].

Q: Which Potency does the source give for `CCCC(=O)N1CC2(CCC)CN(C(=O)CCC)CC(CCC)(C1)C2=O` here?
A: The Potency was inconclusive: 6.31 µM [activator, partial curve, poor fit].

Q: Which Potency does the source give for `O=C(NCC(=O)N1CCCC1)c1ccc(Br)o1` here?
A: The Potency was inconclusive: 3.16 µM [inhibitor, single point].

Q: With `Cc1cc(C(=O)OCC(=O)N(C)c2ccccc2)ccc1[N+](=O)[O-]` as the compound, how does the Potency read?
A: Its Potency is “inactive”.

Q: For `COc1cc(C(C)=O)ccc1COc1ccc(C(=O)OCC(=O)NC(C)(C)C)cc1OC`, which Potency is on record?
A: Its Potency is inconclusive: 5.62 µM [activator, single point].

Q: With `CCOC(=O)CSc1nnc(-c2ccc(OC)cc2)o1` as the compound, how does the Potency read?
A: Its Potency is “inactive”.

Q: With `Oc1ccc(C2=NN(c3ccccc3)C(c3ccc(F)cc3)C2)cc1` (stereo not given) as the compound, how does the Potency read?
A: Its Potency is inconclusive: 25.1 µM [inhibitor, partial curve, poor fit].

Q: For `CC(=O)Nc1cccc(-c2csc(Nc3ccccn3)n2)c1`, which Potency is on record?
A: The Potency was inconclusive: 14.6 µM [inhibitor, single point].

Q: Which Potency does the source give for `Cc1ccc(CSc2nnc(SCC(=O)N/N=C/c3c[nH]c4ccccc34)s2)cc1` here?
A: Its Potency is inconclusive: 35.5 µM [inhibitor, single point].

Q: For `COc1cc(C(=O)Nc2cc(C)c(O)c(-c3nc4cc(Cl)ccc4o3)c2)cc(OC)c1OC`, which Potency is on record?
A: Its Potency is inconclusive: 5.62 µM [activator, single point].

Q: For `CCCC(O)(c1ccc(OC)cc1)C(CN1CCOCC1)c1ccccc1` (stereo not given), which Potency is on record?
A: Its Potency is inconclusive: 10 µM [inhibitor, partial curve, poor fit].

Q: Which Potency does the source give for `COc1ccccc1N(CCC#N)C(=O)CSc1nc(-c2ccccc2)cn1N` here?
A: Its Potency is inconclusive: 18.3 µM [inhibitor, single point].

Q: For `COc1cc(S(=O)(=O)NC2CCCCC2C)ccc1-n1cnnn1` (stereo not given), which Potency is on record?
A: The Potency was inconclusive: 28.2 µM [inhibitor, single point].

Q: Which Potency does the source give for `O=C(NNC(=S)NC(=O)c1ccccc1[N+](=O)[O-])c1ccccc1O` here?
A: Its Potency is inconclusive: 12.6 µM [inhibitor, single point].

Q: For `COc1ccc(C(c2nnnn2Cc2ccccc2)N2CCN(c3ccccc3)CC2)cc1` (stereo not given), which Potency is on record?
A: The Potency was inconclusive: 8.91 µM [inhibitor, partial curve, poor fit].

Q: For `Cc1cc(C)c(C2=NOC3C4CCC(C4)C23)c(C)c1` (stereo not given), which Potency is on record?
A: Its Potency is “inactive”.

Q: Which Potency does the source give for `CC(=O)c1cc(C#N)c(SCc2ccccc2C#N)nc1C` here?
A: Its Potency is inconclusive: 10 µM [inhibitor, partial curve].

Q: With `CCCN1C(=O)SC(CC(=O)Nc2ccc(C)cc2)C1=O` (stereo not given) as the compound, how does the Potency read?
A: The Potency was inconclusive: 7.94 µM [inhibitor, partial curve, poor fit].

Q: For `Cc1ccccc1-n1c(-c2ccc(=O)[nH]n2)n[nH]c1=S`, which Potency is on record?
A: The Potency was “inactive”.

Q: With `CC(C)C(c1nnnn1C1CCCC1)N1CCc2ccccc21` (stereo not given) as the compound, how does the Potency read?
A: The Potency was inconclusive: 4.61 µM [inhibitor, full curve].

Q: For `COCC(C)n1c(C)cc(C(=O)COC(=O)c2ccc3ncsc3c2)c1C` (stereo not given), which Potency is on record?
A: Its Potency is “inactive”.

Q: With `COc1cc(/C=C2/SC(=S)N(Cc3ccccc3)C2=O)ccc1O` as the compound, how does the Potency read?
A: Its Potency is “inactive”.

Q: With `CCCn1c(SCC(=O)Nc2nonc2C)nnc1-c1ccoc1C` as the compound, how does the Potency read?
A: The Potency was “inactive”.

Q: With `COc1ccc(C(c2nnnn2Cc2cccs2)N2CCN(c3ccccc3F)CC2)cc1OC` (stereo not given) as the compound, how does the Potency read?
A: Its Potency is inconclusive: 7.08 µM [inhibitor, partial curve, poor fit].

Q: With `Cc1ccc(C)c(S(=O)(=O)N2CCCOC2CNC(=O)C(=O)NCc2ccccc2)c1` (stereo not given) as the compound, how does the Potency read?
A: Its Potency is inconclusive: 35.5 µM [inhibitor, single point].

Q: With `CCOC(=O)/C(=C\c1ccccc1)C(=O)c1cc(C(C)=O)c(Nc2ccccc2)s1` as the compound, how does the Potency read?
A: Its Potency is inconclusive: 14.6 µM [inhibitor, partial curve, poor fit].

Q: With `O=C(c1ccc2c(c1)N(Cc1ccccc1F)C(=O)c1ccccc1S2=O)N1CCC(Cc2ccccc2)CC1` (stereo not given) as the compound, how does the Potency read?
A: Its Potency is inconclusive: 15.8 µM [inhibitor, single point].

Q: For `O=C(NCc1cnn(-c2ccccc2)c1)C1CCC(=O)N(C2CC2)C1` (stereo not given), which Potency is on record?
A: The Potency was inconclusive: 10 µM [inhibitor, partial curve, poor fit].

Q: With `CC1=C(C(=O)Nc2ccccc2F)C(c2ccsc2)C2=C(CC(c3ccccc3)CC2=O)N1` (stereo not given) as the compound, how does the Potency read?
A: The Potency was inconclusive: 15.8 µM [inhibitor, single point].

Q: With `Oc1ccc(/C=N/Nc2cccc3cccnc23)c(O)c1` as the compound, how does the Potency read?
A: The Potency was inconclusive: 1.3 µM [inhibitor, full curve, poor fit].

Q: For `COc1ccc2nc(N=Nc3ccc(O)c4ccccc34)sc2c1`, which Potency is on record?
A: The Potency was inconclusive: 10 µM [inhibitor, partial curve, poor fit].

Q: For `Cn1c(SCC(=O)N(Cc2ccccc2)C(C)(C)C)nc2ccccc21`, which Potency is on record?
A: The Potency was inconclusive: 18.3 µM [inhibitor, single point].

Q: Which Potency does the source give for `CCN(CCCNC(=O)C1CCN(S(=O)(=O)c2c(C)[nH]c(=O)[nH]c2=O)CC1)c1cccc(C)c1` here?
A: The Potency was inconclusive: 1.12 µM [inhibitor, single point].

Q: With `COCCOc1cc(NC(=O)CS(=O)CC(=O)N(C)C)c(Cl)cc1Cl` (stereo not given) as the compound, how does the Potency read?
A: The Potency was “inactive”.

Q: With `NNC(=S)Nc1ccc(S(=O)(=O)N2CCCCC2)cc1` as the compound, how does the Potency read?
A: Its Potency is inconclusive: 20 µM [inhibitor, partial curve, poor fit].

Q: Which Potency does the source give for `COc1ccc(CNc2ncnc3ccccc23)cc1` here?
A: Its Potency is inconclusive: 11.2 µM [inhibitor, partial curve, poor fit].

Q: For `COc1cc(C2=NOC(C(=O)NCc3cccnc3)C2)cc(OC)c1OC` (stereo not given), which Potency is on record?
A: The Potency was inconclusive: 35.5 µM [inhibitor, single point].

Q: Which Potency does the source give for `Cc1cccc(-n2cc(-c3ccc([N+](=O)[O-])cc3)[nH]c2=S)c1` here?
A: The Potency was “inactive”.

Q: With `CCOC(=O)COc1ccccc1/C=C\[N+](=O)[O-]` as the compound, how does the Potency read?
A: Its Potency is active: 16.4 µM.

Q: With `COc1ccc(Cl)cc1NS(=O)(=O)c1cccc(C(=O)NCC2(N(C)C)CCCCC2)c1` as the compound, how does the Potency read?
A: The Potency was inconclusive: 35.5 µM [inhibitor, single point].

Q: Which Potency does the source give for `COc1ccc(NC(=O)c2onc(C)c2Cl)cc1OC` here?
A: Its Potency is “inactive”.

Q: With `Cc1cccc(-n2ncc3c2CCCC3NC(=O)CN2CCCC2=O)c1C` (stereo not given) as the compound, how does the Potency read?
A: The Potency was inconclusive: 22.4 µM [inhibitor, single point].

Q: With `COc1ccc(N(CC(=O)Nc2ccccc2C(N)=O)S(=O)(=O)c2ccc(C)c([N+](=O)[O-])c2)cc1` as the compound, how does the Potency read?
A: The Potency was inconclusive: 29.1 µM [inhibitor, single point].

Q: With `CCc1c(C)n2nc(C)cc2[nH]c1=O` as the compound, how does the Potency read?
A: The Potency was “inactive”.

Q: For `Cc1ccc(Cl)cc1NC(=O)Cn1nnc2sc3c(c2c1=O)CCC(C(C)(C)C)C3` (stereo not given), which Potency is on record?
A: Its Potency is inconclusive: 35.5 µM [inhibitor, single point].

Q: For `CC(C)N1C(=O)CC(Nc2ccc(N3CCOCC3)cc2)C1=O` (stereo not given), which Potency is on record?
A: The Potency was “inactive”.

Q: With `Cc1ccc2cc(C)c(SCC(=O)NCC3CCCO3)nc2c1` (stereo not given) as the compound, how does the Potency read?
A: The Potency was inconclusive: 25.1 µM [inhibitor, single point].

Q: With `Cc1ccc2c(CC(=O)Nc3nnc(C(C)C)s3)coc2c1C` as the compound, how does the Potency read?
A: Its Potency is “inactive”.

Q: For `COc1cc(OC)cc(-n2c(=O)c3sccc3n(Cc3cc(=O)n4c(C)cccc4n3)c2=O)c1`, which Potency is on record?
A: The Potency was inconclusive: 10 µM [inhibitor, partial curve].

Q: With `COc1ccc(C2C(C(=O)Nc3ccc(OC)c(OC)c3)c3ccccc3C(=O)N2C)cc1` (stereo not given) as the compound, how does the Potency read?
A: The Potency was inconclusive: 35.5 µM [inhibitor, single point].

Q: Which Potency does the source give for `COc1ccc(OCc2ccc(-c3nc(C#N)c(NCc4ccc(F)cc4)o3)o2)cc1` here?
A: The Potency was “inactive”.

Q: With `COCCN(CC(=O)NCC1CCCO1)C(=O)CCC(=O)Nc1cc(C)ccn1` (stereo not given) as the compound, how does the Potency read?
A: The Potency was inconclusive: 11.2 µM [activator, single point].

Q: With `COc1ccc(S(=O)(=O)N(CC(=O)N2CCOCC2)Cc2ccccc2)cc1C` as the compound, how does the Potency read?
A: Its Potency is “inactive”.

Q: For `CC(C)(C)NC(=O)C(c1ccc(O)cc1)N(C(=O)CCC(=O)Nc1nccs1)c1ccccc1F` (stereo not given), which Potency is on record?
A: Its Potency is inconclusive: 10 µM [inhibitor, partial curve, poor fit].
